Results published in the supplement of paper PMC12823440, “Inhibitors supercharge kinase turnover through native proteolytic circuits” (Nature, 2025).
This is one part of the list. The calls rarely recur for the same compound in another form.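 Kinases were expressed as nanoluciferase fusions in K562 cells and luminescence was read every 4 h between 2 and 18 h as percent of control, DMSO set to 100% and a positive control to 0%. A time point counts as decreased when the signal drops significantly (2 sigma). The hit call is the authors' own, does not follow from the count of time points alone, and its rule is not shown.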

Amino acid sequences for entries named in this document (tags omitted). A change or cut given only in a name is not applied to a line headed by its entry.
UniProt P42680: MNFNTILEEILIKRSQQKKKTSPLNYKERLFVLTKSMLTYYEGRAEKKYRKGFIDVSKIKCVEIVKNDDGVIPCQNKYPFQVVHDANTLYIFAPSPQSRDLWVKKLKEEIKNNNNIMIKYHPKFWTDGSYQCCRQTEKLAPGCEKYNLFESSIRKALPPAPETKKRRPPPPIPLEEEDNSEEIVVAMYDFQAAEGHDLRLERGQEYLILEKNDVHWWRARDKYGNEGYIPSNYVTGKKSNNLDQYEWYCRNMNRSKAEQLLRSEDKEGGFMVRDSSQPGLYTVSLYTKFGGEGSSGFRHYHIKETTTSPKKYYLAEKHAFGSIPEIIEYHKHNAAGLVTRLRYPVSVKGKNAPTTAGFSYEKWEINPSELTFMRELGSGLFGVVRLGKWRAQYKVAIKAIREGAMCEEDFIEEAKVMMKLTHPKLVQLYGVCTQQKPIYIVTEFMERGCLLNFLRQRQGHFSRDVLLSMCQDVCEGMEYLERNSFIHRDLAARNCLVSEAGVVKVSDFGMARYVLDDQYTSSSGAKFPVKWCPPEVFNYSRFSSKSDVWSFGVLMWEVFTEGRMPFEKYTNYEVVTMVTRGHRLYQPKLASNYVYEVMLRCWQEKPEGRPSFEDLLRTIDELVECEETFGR
UniProt Q6PHR2: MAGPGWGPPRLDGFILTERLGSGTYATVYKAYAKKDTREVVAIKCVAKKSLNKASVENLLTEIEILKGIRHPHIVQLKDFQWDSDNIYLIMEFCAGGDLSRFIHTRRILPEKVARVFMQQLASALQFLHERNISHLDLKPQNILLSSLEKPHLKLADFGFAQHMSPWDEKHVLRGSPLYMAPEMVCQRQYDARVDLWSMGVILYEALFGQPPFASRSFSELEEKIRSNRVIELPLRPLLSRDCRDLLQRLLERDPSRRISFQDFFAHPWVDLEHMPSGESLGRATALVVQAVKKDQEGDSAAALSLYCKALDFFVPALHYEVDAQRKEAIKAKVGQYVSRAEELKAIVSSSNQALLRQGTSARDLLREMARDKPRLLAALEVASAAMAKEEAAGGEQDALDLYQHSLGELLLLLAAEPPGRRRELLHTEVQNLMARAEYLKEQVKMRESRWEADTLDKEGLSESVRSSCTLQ
UniProt P07947, whole entry, looked up: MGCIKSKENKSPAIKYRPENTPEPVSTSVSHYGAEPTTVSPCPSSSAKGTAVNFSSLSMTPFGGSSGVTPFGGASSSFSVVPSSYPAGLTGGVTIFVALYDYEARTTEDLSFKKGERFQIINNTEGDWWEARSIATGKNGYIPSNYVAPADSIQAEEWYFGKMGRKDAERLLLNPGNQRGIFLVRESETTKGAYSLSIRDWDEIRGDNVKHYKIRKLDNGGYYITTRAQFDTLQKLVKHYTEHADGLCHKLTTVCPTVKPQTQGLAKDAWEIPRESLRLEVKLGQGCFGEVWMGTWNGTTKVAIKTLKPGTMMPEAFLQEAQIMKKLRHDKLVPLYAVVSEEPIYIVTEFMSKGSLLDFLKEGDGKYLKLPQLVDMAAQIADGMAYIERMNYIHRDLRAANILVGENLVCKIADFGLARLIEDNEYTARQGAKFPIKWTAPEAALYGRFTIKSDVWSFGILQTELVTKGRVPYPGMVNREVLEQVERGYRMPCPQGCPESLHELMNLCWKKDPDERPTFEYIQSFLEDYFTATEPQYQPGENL
UniProt P43403: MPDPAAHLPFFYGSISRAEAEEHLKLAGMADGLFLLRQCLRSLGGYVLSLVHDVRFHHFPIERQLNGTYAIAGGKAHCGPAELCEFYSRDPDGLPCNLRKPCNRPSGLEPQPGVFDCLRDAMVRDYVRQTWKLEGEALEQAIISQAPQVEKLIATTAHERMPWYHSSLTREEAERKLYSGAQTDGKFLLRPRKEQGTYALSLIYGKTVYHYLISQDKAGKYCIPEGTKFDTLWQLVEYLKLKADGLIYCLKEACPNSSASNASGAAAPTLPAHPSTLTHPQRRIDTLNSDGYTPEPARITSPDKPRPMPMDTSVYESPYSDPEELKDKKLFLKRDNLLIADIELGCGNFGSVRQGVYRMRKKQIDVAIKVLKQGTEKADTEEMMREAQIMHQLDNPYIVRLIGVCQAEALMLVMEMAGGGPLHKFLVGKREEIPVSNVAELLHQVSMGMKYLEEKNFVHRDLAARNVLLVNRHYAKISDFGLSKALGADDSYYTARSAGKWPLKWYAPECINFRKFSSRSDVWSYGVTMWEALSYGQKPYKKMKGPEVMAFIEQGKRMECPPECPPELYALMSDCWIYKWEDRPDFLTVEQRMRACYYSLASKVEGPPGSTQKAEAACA
UniProt P00519, whole entry: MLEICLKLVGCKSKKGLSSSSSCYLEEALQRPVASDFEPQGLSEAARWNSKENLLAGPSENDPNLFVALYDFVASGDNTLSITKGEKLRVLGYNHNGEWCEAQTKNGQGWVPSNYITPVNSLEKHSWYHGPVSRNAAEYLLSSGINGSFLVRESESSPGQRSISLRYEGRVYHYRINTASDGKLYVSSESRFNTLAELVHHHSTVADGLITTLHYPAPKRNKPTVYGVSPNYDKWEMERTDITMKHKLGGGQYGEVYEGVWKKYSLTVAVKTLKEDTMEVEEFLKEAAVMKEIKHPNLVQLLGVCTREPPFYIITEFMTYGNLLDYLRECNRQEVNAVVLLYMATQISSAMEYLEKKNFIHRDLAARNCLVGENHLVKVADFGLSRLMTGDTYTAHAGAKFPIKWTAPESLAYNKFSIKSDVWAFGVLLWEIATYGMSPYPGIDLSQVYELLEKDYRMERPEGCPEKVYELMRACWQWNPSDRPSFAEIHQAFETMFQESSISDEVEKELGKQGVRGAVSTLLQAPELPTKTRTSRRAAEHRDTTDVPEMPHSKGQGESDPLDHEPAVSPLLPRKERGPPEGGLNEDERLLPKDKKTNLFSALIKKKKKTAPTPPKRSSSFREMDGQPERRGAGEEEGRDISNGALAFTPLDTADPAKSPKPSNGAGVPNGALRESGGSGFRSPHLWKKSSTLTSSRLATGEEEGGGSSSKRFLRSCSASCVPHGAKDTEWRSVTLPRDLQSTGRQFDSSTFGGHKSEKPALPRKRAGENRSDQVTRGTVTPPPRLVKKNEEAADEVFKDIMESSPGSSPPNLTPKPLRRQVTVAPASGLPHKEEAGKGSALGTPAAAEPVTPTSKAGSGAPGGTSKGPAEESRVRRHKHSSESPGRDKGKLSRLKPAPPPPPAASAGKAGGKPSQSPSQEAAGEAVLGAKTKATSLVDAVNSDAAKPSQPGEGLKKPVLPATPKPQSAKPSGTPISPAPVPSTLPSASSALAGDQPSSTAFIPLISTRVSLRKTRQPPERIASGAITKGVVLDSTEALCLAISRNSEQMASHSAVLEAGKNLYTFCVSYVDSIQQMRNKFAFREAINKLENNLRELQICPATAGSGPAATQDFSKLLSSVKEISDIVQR
UniProt P31749: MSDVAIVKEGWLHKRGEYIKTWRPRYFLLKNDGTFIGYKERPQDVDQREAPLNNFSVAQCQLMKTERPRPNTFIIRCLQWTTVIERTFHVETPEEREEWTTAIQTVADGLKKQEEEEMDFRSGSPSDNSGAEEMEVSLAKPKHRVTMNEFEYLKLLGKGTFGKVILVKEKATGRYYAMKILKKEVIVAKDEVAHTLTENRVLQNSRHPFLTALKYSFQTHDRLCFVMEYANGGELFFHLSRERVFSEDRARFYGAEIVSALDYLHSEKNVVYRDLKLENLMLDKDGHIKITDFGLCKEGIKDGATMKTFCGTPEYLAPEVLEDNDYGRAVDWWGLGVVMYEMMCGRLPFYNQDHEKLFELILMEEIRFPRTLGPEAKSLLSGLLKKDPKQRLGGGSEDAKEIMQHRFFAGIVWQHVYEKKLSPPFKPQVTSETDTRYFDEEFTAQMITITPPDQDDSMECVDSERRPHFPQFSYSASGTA
UniProt P10398: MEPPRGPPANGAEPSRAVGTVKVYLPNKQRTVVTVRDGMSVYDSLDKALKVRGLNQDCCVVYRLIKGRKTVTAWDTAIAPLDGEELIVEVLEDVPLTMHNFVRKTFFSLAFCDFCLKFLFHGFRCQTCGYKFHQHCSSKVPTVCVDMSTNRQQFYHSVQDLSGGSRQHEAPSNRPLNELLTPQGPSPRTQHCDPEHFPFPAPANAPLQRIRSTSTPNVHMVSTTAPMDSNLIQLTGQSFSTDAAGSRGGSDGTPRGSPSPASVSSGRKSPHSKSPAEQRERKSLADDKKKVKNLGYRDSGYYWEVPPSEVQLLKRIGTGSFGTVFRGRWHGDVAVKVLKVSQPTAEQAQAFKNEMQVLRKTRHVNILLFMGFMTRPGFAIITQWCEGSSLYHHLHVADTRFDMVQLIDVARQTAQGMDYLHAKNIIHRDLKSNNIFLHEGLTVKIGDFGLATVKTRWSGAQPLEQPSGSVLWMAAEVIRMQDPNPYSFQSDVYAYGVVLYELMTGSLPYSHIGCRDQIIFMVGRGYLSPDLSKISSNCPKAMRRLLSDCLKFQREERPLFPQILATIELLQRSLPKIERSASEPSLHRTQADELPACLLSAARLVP
UniProt Q96GD4, whole entry: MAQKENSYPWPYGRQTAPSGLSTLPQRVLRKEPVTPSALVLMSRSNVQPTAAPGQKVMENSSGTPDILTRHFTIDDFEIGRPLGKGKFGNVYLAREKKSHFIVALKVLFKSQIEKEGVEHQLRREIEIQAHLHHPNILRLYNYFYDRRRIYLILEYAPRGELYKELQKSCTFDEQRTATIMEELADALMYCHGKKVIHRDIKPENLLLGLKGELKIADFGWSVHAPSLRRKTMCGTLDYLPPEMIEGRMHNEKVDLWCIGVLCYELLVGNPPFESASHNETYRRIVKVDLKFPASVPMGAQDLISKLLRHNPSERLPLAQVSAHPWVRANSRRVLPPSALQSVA
UniProt Q9UQB9: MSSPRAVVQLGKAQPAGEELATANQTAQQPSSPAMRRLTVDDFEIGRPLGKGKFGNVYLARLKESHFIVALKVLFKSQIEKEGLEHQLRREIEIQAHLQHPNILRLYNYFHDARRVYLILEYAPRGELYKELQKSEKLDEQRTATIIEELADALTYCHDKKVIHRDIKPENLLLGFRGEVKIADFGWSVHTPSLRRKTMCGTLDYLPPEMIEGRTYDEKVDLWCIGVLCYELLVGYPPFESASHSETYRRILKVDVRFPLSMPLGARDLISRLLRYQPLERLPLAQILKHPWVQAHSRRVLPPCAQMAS
UniProt P51451: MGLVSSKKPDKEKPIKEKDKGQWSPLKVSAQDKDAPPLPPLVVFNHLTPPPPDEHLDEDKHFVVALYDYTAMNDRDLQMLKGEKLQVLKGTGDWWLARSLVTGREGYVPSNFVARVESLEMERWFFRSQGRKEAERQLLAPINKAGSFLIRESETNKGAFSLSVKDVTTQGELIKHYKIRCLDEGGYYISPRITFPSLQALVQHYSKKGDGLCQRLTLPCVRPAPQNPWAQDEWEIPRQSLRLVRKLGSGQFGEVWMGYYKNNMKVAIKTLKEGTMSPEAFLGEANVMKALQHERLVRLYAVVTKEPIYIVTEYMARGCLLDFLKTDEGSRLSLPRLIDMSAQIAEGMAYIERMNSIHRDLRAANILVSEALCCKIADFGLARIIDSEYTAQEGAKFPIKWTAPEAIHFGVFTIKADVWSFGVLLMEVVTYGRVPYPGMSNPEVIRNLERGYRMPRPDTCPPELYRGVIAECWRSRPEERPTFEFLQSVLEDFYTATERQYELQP
UniProt P51813: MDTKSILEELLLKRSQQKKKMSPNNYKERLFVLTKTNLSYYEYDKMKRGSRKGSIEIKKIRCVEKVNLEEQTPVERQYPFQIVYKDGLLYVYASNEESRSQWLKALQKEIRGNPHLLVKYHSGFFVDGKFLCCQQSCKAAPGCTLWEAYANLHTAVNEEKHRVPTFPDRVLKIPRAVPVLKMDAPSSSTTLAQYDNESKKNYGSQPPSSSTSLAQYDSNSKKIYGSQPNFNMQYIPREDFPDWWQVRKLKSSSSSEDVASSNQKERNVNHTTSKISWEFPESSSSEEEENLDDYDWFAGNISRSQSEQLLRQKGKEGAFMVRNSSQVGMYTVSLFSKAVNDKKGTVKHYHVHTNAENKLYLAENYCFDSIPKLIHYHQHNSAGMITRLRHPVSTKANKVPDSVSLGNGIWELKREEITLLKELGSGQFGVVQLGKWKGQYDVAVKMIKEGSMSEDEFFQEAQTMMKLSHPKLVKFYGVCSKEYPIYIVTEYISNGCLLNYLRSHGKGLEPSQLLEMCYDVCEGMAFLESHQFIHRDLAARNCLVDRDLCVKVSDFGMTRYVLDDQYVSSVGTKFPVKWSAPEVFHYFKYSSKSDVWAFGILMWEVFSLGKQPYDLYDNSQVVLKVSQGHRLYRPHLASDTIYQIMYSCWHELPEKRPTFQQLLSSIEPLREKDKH

Columns and labels:
Conditions in all cases: K562; 2-18 h
STK38 = STK38 (UniProt Q15208); assay: kinase-Nluc reporter destabilization hit call (1 = scored as downregulated) (binary); higher = compound decreases kinase abundance
SYK = SYK (UniProt P43405); assay: as above
TEC = TEC (UniProt P42680); assay: as above
TYK2 = TYK2 (UniProt P29597); assay: as above
ULK3 = ULK3 (UniProt Q6PHR2); assay: as above
YES1 = YES1 (UniProt P07947); assay: as above
ZAK = ZAK (UniProt Q9NYL2); assay: as above
ZAP70 = ZAP70 (UniProt P43403); assay: as above
ABL1 = ABL1 (UniProt P00519); assay: number of time points (of 5) at which kinase-Nluc abundance scored as decreased, DMSO-normalised (count); higher = more persistent destabilization
AKT1 = AKT1 (UniProt P31749); assay: as above
ALK = ALK (UniProt Q9UM73); assay: as above
ARAF = ARAF (UniProt P10398); assay: as above
AURKA = AURKA (UniProt O14965); assay: as above
AURKB = AURKB (UniProt Q96GD4); assay: as above
AURKC = AURKC (UniProt Q9UQB9); assay: as above
BLK = BLK (UniProt P51451); assay: as above
BMX = BMX (UniProt P51813); assay: as above
BRAF = BRAF (UniProt P15056); assay: as above
BRAF_V600E = assay: as above
BTK = BTK (UniProt Q06187); assay: as above

COc1ccc2cc3[n+](cc2c1OC)CCc1cc(O)c(O)cc1-3 [Demethyleneberberine] (10 µM)
inactive: kinase-Nluc reporter destabilization hit call (STK38) 0 | kinase-Nluc reporter destabilization hit call (SYK) 0 | kinase-Nluc reporter destabilization hit call (TEC) 0 | kinase-Nluc reporter destabilization hit call (TYK2) 0 | kinase-Nluc reporter destabilization hit call (ULK3) 0 | kinase-Nluc reporter destabilization hit call (YES1) 0 | kinase-Nluc reporter destabilization hit call (ZAK) 0 | kinase-Nluc reporter destabilization hit call (ZAP70) 0
0: number of time points (ABL1) | number of time points (AKT1) | number of time points (ALK) | number of time points (ARAF) | number of time points (AURKA) | number of time points (AURKB) | number of time points (AURKC) | number of time points (BLK) | number of time points (BMX) | number of time points (BRAF) | number of time points (BRAF_V600E) | number of time points (BTK)

O[C@@H]1CO[C@H]2[C@@H]1OC[C@H]2Oc1nc2nc(-c3ccc(-c4ccccc4)cc3)c(Cl)cc2[nH]1 (10 µM)
0: number of time points (ABL1) | number of time points (AKT1) | number of time points (ALK) | number of time points (ARAF) | number of time points (AURKA) | number of time points (AURKB) | number of time points (AURKC) | number of time points (BLK) | number of time points (BMX) | number of time points (BRAF) | number of time points (BRAF_V600E) | number of time points (BTK)
inactive: kinase-Nluc reporter destabilization hit call (STK38) 0 | kinase-Nluc reporter destabilization hit call (SYK) 0 | kinase-Nluc reporter destabilization hit call (TEC) 0 | kinase-Nluc reporter destabilization hit call (TYK2) 0 | kinase-Nluc reporter destabilization hit call (ULK3) 0 | kinase-Nluc reporter destabilization hit call (YES1) 0 | kinase-Nluc reporter destabilization hit call (ZAK) 0 | kinase-Nluc reporter destabilization hit call (ZAP70) 0

C=CC(=O)Nc1cccc(CNc2nc(Nc3ccc(N4CCN(C)CC4)cc3OC)ncc2Cl)c1 (10 µM)
inactive: kinase-Nluc reporter destabilization hit call (STK38) 0 | kinase-Nluc reporter destabilization hit call (SYK) 0 | kinase-Nluc reporter destabilization hit call (TEC) 0 | kinase-Nluc reporter destabilization hit call (TYK2) 0 | kinase-Nluc reporter destabilization hit call (ULK3) 0 | kinase-Nluc reporter destabilization hit call (YES1) 0 | kinase-Nluc reporter destabilization hit call (ZAK) 0 | kinase-Nluc reporter destabilization hit call (ZAP70) 0
0: number of time points (ABL1) | number of time points (AKT1) | number of time points (ALK) | number of time points (ARAF) | number of time points (AURKA) | number of time points (AURKB) | number of time points (AURKC) | number of time points (BLK) | number of time points (BMX) | number of time points (BRAF) | number of time points (BRAF_V600E) | number of time points (BTK)

C#Cc1cccc(Nc2ncnc3cc(OC)c(OCCCCCCC(=O)NO)cc23)c1 (2.5 µM)
inactive: kinase-Nluc reporter destabilization hit call (STK38) 0 | kinase-Nluc reporter destabilization hit call (SYK) 0 | kinase-Nluc reporter destabilization hit call (TEC) 0 | kinase-Nluc reporter destabilization hit call (TYK2) 0 | kinase-Nluc reporter destabilization hit call (ULK3) 0 | kinase-Nluc reporter destabilization hit call (YES1) 0 | kinase-Nluc reporter destabilization hit call (ZAK) 0 | kinase-Nluc reporter destabilization hit call (ZAP70) 0
0: number of time points (ABL1) | number of time points (AKT1) | number of time points (ALK) | number of time points (ARAF) | number of time points (AURKA) | number of time points (AURKB) | number of time points (AURKC) | number of time points (BLK) | number of time points (BMX) | number of time points (BRAF) | number of time points (BRAF_V600E) | number of time points (BTK)

O=c1cc(N2CCOCC2)nc2c3ccccc3ccn12 [Compound 401] (10 µM)
inactive: kinase-Nluc reporter destabilization hit call (STK38) 0 | kinase-Nluc reporter destabilization hit call (SYK) 0 | kinase-Nluc reporter destabilization hit call (TEC) 0 | kinase-Nluc reporter destabilization hit call (TYK2) 0 | kinase-Nluc reporter destabilization hit call (ULK3) 0 | kinase-Nluc reporter destabilization hit call (YES1) 0 | kinase-Nluc reporter destabilization hit call (ZAK) 0 | kinase-Nluc reporter destabilization hit call (ZAP70) 0
0: number of time points (ABL1) | number of time points (AKT1) | number of time points (ALK) | number of time points (ARAF) | number of time points (AURKA) | number of time points (AURKB) | number of time points (AURKC) | number of time points (BLK) | number of time points (BMX) | number of time points (BRAF) | number of time points (BRAF_V600E) | number of time points (BTK)

CCc1cncnc1N1CCN(Cc2nc3ccc(C(F)(F)F)cc3[nH]2)CC1 (10 µM)
0: number of time points (ABL1) | number of time points (AKT1) | number of time points (ALK) | number of time points (ARAF) | number of time points (AURKA) | number of time points (AURKB) | number of time points (AURKC) | number of time points (BLK) | number of time points (BMX) | number of time points (BRAF) | number of time points (BRAF_V600E) | number of time points (BTK)
inactive: kinase-Nluc reporter destabilization hit call (STK38) 0 | kinase-Nluc reporter destabilization hit call (SYK) 0 | kinase-Nluc reporter destabilization hit call (TEC) 0 | kinase-Nluc reporter destabilization hit call (TYK2) 0 | kinase-Nluc reporter destabilization hit call (ULK3) 0 | kinase-Nluc reporter destabilization hit call (YES1) 0 | kinase-Nluc reporter destabilization hit call (ZAK) 0 | kinase-Nluc reporter destabilization hit call (ZAP70) 0

Already shown: two of the compounds above.
COc1ccc2cc3[n+](cc2c1OC)CCc1cc(O)c(O)cc1-3 [Demethyleneberberine] (10 µM)
inactive: kinase-Nluc reporter destabilization hit call (STK38) 0 | kinase-Nluc reporter destabilization hit call (SYK) 0 | kinase-Nluc reporter destabilization hit call (TEC) 0 | kinase-Nluc reporter destabilization hit call (TYK2) 0 | kinase-Nluc reporter destabilization hit call (ULK3) 0 | kinase-Nluc reporter destabilization hit call (YES1) 0 | kinase-Nluc reporter destabilization hit call (ZAK) 0 | kinase-Nluc reporter destabilization hit call (ZAP70) 0
0: number of time points (ABL1) | number of time points (AKT1) | number of time points (ALK) | number of time points (ARAF) | number of time points (AURKA) | number of time points (AURKB) | number of time points (AURKC) | number of time points (BLK) | number of time points (BMX) | number of time points (BRAF) | number of time points (BRAF_V600E) | number of time points (BTK)

O[C@@H]1CO[C@H]2[C@@H]1OC[C@H]2Oc1nc2nc(-c3ccc(-c4ccccc4)cc3)c(Cl)cc2[nH]1 (10 µM)
0: number of time points (ABL1) | number of time points (AKT1) | number of time points (ALK) | number of time points (ARAF) | number of time points (AURKA) | number of time points (AURKB) | number of time points (AURKC) | number of time points (BLK) | number of time points (BMX) | number of time points (BRAF) | number of time points (BRAF_V600E) | number of time points (BTK)
inactive: kinase-Nluc reporter destabilization hit call (STK38) 0 | kinase-Nluc reporter destabilization hit call (SYK) 0 | kinase-Nluc reporter destabilization hit call (TEC) 0 | kinase-Nluc reporter destabilization hit call (TYK2) 0 | kinase-Nluc reporter destabilization hit call (ULK3) 0 | kinase-Nluc reporter destabilization hit call (YES1) 0 | kinase-Nluc reporter destabilization hit call (ZAK) 0 | kinase-Nluc reporter destabilization hit call (ZAP70) 0

Next structures:

O=C(O)c1cc(N(Cc2ccccc2O)Cc2ccccc2O)ccc1O [Lavendustin B] (10 µM)
0: number of time points (ABL1) | number of time points (AKT1) | number of time points (ALK) | number of time points (ARAF) | number of time points (AURKA) | number of time points (AURKB) | number of time points (AURKC) | number of time points (BLK) | number of time points (BMX) | number of time points (BRAF) | number of time points (BRAF_V600E) | number of time points (BTK)
inactive: kinase-Nluc reporter destabilization hit call (STK38) 0 | kinase-Nluc reporter destabilization hit call (SYK) 0 | kinase-Nluc reporter destabilization hit call (TEC) 0 | kinase-Nluc reporter destabilization hit call (TYK2) 0 | kinase-Nluc reporter destabilization hit call (ULK3) 0 | kinase-Nluc reporter destabilization hit call (YES1) 0 | kinase-Nluc reporter destabilization hit call (ZAK) 0 | kinase-Nluc reporter destabilization hit call (ZAP70) 0

CCn1c(=O)c(-c2cc[nH]n2)cc2c(C)nc(N)nc21 [Voxtalisib] (10 µM)
0: number of time points (ABL1) | number of time points (AKT1) | number of time points (ALK) | number of time points (ARAF) | number of time points (AURKB) | number of time points (AURKC) | number of time points (BLK) | number of time points (BMX) | number of time points (BRAF) | number of time points (BTK)
4: number of time points (AURKA)
inactive: kinase-Nluc reporter destabilization hit call (STK38) 0 | kinase-Nluc reporter destabilization hit call (SYK) 0 | kinase-Nluc reporter destabilization hit call (TEC) 0 | kinase-Nluc reporter destabilization hit call (TYK2) 0 | kinase-Nluc reporter destabilization hit call (ULK3) 0 | kinase-Nluc reporter destabilization hit call (YES1) 0 | kinase-Nluc reporter destabilization hit call (ZAK) 0 | kinase-Nluc reporter destabilization hit call (ZAP70) 0
1: number of time points (BRAF_V600E)

Cc1cnc(-c2ccc(-c3ccc(NC(=O)Nc4cccc(C(F)(F)F)c4)cc3F)c3c2C(=O)NC3)[nH]1 (10 µM)
2: number of time points (BMX) | number of time points (BRAF)
inactive: kinase-Nluc reporter destabilization hit call (STK38) 0 | kinase-Nluc reporter destabilization hit call (SYK) 0 | kinase-Nluc reporter destabilization hit call (TEC) 0 | kinase-Nluc reporter destabilization hit call (TYK2) 0 | kinase-Nluc reporter destabilization hit call (ULK3) 0 | kinase-Nluc reporter destabilization hit call (YES1) 0 | kinase-Nluc reporter destabilization hit call (ZAK) 0 | kinase-Nluc reporter destabilization hit call (ZAP70) 0
0: number of time points (ABL1) | number of time points (AKT1) | number of time points (ALK) | number of time points (ARAF) | number of time points (AURKA) | number of time points (AURKB) | number of time points (AURKC) | number of time points (BLK) | number of time points (BRAF_V600E) | number of time points (BTK)

O=C1NC(=O)/C(=C/c2ccc3nccc(-c4ccncc4)c3c2)S1 (10 µM)
0: number of time points (AKT1) | number of time points (ALK) | number of time points (ARAF) | number of time points (AURKB) | number of time points (AURKC) | number of time points (BLK) | number of time points (BRAF_V600E) | number of time points (BTK)
5: number of time points (ABL1)
inactive: kinase-Nluc reporter destabilization hit call (STK38) 0 | kinase-Nluc reporter destabilization hit call (SYK) 0 | kinase-Nluc reporter destabilization hit call (TEC) 0 | kinase-Nluc reporter destabilization hit call (TYK2) 0 | kinase-Nluc reporter destabilization hit call (ULK3) 0 | kinase-Nluc reporter destabilization hit call (YES1) 0 | kinase-Nluc reporter destabilization hit call (ZAK) 0 | kinase-Nluc reporter destabilization hit call (ZAP70) 0
3: number of time points (BMX)
1: number of time points (AURKA) | number of time points (BRAF)
